# Publication PMC5996148
# Several values for one entry are separate records, joined by “and”; a condition that tells them apart may be missing. Equal values may be shown once. The list shows a part of the results. For some of these results: The source does not settle which construct or isoform was used.
# Legend:
# Test in all cases: protein microarray (ProtoArray v5.0), streptavidin-Alexa Fluor 647
# Conditions in all cases: 3'-biotin; 20 mM Tris (pH 7.5), 5 mM MgCl2, 100 mM KCl, 0.1% Tween-20, A/T-rich and random oligonucleotide blockers; temperature not stated; high values mean tight binding
# [1] = tested on: GTF2H2 (human)
# [2] = tested on: GTF2H5 (human)
# [3] = tested on: GTF2I (human)
# [4] = tested on: GTF2IRD2 (human)
# [5] = tested on: GTP-binding nuclear protein Ran (human)
# [6] = tested on: GTPBP8 (human)
# [7] = tested on: GUCA1A (human)
# [8] = tested on: GUCY1B3 (human)
# [9] = target: T1, GYG2 (UniProt O15488)
# T1 sequence: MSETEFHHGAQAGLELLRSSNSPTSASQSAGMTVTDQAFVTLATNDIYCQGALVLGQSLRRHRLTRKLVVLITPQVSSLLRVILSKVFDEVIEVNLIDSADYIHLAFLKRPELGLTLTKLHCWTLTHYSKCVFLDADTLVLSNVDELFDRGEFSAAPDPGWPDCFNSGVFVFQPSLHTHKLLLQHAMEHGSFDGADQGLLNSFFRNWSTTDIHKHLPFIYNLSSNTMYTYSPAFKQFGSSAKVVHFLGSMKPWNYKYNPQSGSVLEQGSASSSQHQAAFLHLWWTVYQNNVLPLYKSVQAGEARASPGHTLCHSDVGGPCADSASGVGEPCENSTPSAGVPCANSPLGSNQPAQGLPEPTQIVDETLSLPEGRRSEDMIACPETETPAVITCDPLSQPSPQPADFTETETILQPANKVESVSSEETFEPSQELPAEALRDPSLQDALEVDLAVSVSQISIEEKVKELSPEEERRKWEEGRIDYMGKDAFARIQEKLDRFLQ
# [10] = target: T2, GYPC (UniProt P04921)
# T2 sequence: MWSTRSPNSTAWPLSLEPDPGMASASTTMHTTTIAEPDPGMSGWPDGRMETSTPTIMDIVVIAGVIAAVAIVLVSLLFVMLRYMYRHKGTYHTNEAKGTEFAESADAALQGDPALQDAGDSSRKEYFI
sequence,measurement,setting,value
GGGAGGCTGAGGCAGG [G4-1 biotinylated (PQS2)],binding signal,[1],-0.305 z-score
same,binding signal,[2],-0.346 z-score
same,binding signal,[3],-0.358 z-score
same,binding signal,[4],-0.286 z-score
same,binding signal,[5],-0.304 z-score and -0.344 z-score
same,binding signal,[6],-0.321 z-score
same,binding signal,[7],-0.349 z-score
same,binding signal,[8],-0.299 z-score
same,binding signal,[9],-0.341 z-score
same,binding signal,[10],-0.348 z-score
